# Reference: PubChem BioAssay AID540256 (National Center for Advancing Translational Sciences (NCATS), 2011)
# Several values for one entry are separate records, joined by “and”; a condition that tells them apart may be missing. Identical values can stand only once. Screen size: about 300,000 compounds; about 3,700 (1.2%) were called active. The inconclusive results got no clear call from the source; some entries with a clear call stand among them for comparison. Calls follow the shape of the full dose curve; tested in HEK293 cells. Potencies of inconclusive entries are doubtful fits and often do not repeat.
# Test: qHTS for Inhibitors of binding or entry into cells for Lassa Virus; also: nearly all actives have a fitted effect of over 50% in size
# Conditions: Lassa virus pseudotype entry inhibition, cell reporter; series mostly up to 37.9 µM
# Potency is read from the fitted curve at half-maximal effect.
row,Compound,Potency
1,NC(=O)CSc1ncc2c(n1)-c1ccccc1N(Cc1ccc(Cl)cc1)S2(=O)=O,"inconclusive: 1.12 µM [activator, single point]"
2,CCOC(=O)C1=C(C)NC(C)=C(C(=O)OCC)C1C(=O)OCC(=O)N1c2ccccc2CC1C (stereo not given),"inconclusive: 0.891 µM [inhibitor, full curve, poor fit]"
3,Cc1nn2c(NCCN3CCOCC3)c3c(nc2c1-c1ccccc1)CCCC3,inactive
4,CCCCCC(O)CCCC(=O)O (stereo not given),inactive
5,Cn1c(N)c(C(=O)COC(=O)CSc2ccc3ccccc3c2)c(=O)n(C)c1=O,inactive
6,C=CCn1c(SCC(=O)c2cccs2)nc2sc(CC)cc2c1=O,"inconclusive: 25.9 µM [inhibitor, partial curve, poor fit]"
7,Cc1c(Cl)cccc1NC(=O)Cn1nnc2sc3c(c2c1=O)CCCC3,inactive
8,CN(C)CCCCOc1ccc(Br)cc1Cl,inactive
9,COc1ccccc1C(=O)Nc1cccc(C(=O)OCc2cc(=O)n3nc(C)sc3n2)c1,inactive
10,COc1ccc(C(=O)N(c2ccc(OC)cc2)S(=O)(=O)c2ccc3c(c2)n(C)c(=O)n3C)cc1,"inconclusive: 31.6 µM [inhibitor, partial curve, poor fit]"
11,CCCOC(=O)Nc1ccc(C(N)=O)cc1,inactive
12,CN(C(=O)COC(=O)c1cccc(F)c1)c1ccccc1,"inconclusive: 0.631 µM [inhibitor, single point]"
13,NC(=O)C1CCCN(C(=S)NCc2ccc3c(c2)OCO3)C1 (stereo not given),inactive
14,Cn1c(=O)c2cc(NC(=O)c3ccccc3Cl)c(=O)oc2n(C)c1=O,"inconclusive: 0.0326 µM [activator, full curve, poor fit]"
15,Cc1ccc(C)c(N2CCN(CCCNC(=O)c3ccc4nc(N5CCCCC5)sc4c3)CC2)c1,"inconclusive: 31.6 µM [inhibitor, single point]"
16,COc1ccc(COC(=O)c2cc(S(=O)(=O)N3CCCCC3)ccc2N2CCOCC2)cc1,"inconclusive: 7.94 µM [inhibitor, partial curve]"
17,Cc1ccc(-c2nnc(Nc3ccccc3)c3ccccc23)cc1S(=O)(=O)NCc1nc2ccccc2[nH]1,"inconclusive: 35.5 µM [inhibitor, single point]"
18,Cc1cccc(C(=O)Nc2c(C#N)c(C)c(C)n2Cc2ccccc2)c1,inactive
19,Cc1cccc(N2CCN(C(=O)CCS(=O)(=O)c3ccc4c(c3)oc(=O)n4C)CC2)c1C,"inactive and inconclusive: 7.94 µM [inhibitor, partial curve, poor fit]"
20,CCOC(=O)c1sc(NC(=O)c2ccco2)c(C#N)c1C,inactive
21,Cc1ccc(/C=C/C(=O)C2C(=O)c3ccccc3C2=O)cc1,"inconclusive: 5.8 µM [inhibitor, full curve, poor fit]"
22,Cc1cccc(C)c1NC(=O)CN(C)C(C)C(=O)Nc1ccccc1-c1ccccc1 (stereo not given),"inconclusive: 0.562 µM [inhibitor, full curve, poor fit]"

row,Compound,Potency
1,O=c1oc2ccccc2cc1-c1csc(Cc2nc(-c3ccc(Br)cc3)cs2)n1,inactive
2,Cc1ccccc1NC(=O)CSc1nnc(-c2ccccn2)o1,inactive
3,CCC(NC(=O)Nc1cc(OC)ccc1OC)c1c(-n2cccc2)sc2c1CCN(CC)C2 (stereo not given),inactive
4,Cc1ccc(NC(=O)Cn2nnc(-c3ccccc3NC(=O)c3cccs3)n2)cc1,active: 0.58 µM
5,COc1ccc(CN(C)C(=O)c2ccc(NC(=O)CC3SC(N4CCCC4)=NC3=O)cc2)c(OC)c1 (stereo not given),inactive
6,Cc1cc(C)cc(N2C(=O)NC(=O)/C(=C/c3cccn3-c3ccc(Cl)cc3)C2=O)c1,"inconclusive: 12.6 µM [inhibitor, single point]"
7,CCOc1ccc(C(=O)Nc2ccc(-n3nncc3-c3ccccc3)cc2)cc1OCC,"inconclusive: 4.47 µM [inhibitor, full curve, poor fit]"
8,COc1ccc(/C=C2\C(=O)NCC(=O)N2Cc2ccccc2)cc1,"inconclusive: 12.6 µM [inhibitor, partial curve, poor fit]"
9,O=C(NCCCN1CCCC1=O)c1cncc(Br)c1,"inconclusive: 0.73 µM [activator, single point]"
10,COc1ccc(NC(=O)CN(c2ccccc2)S(=O)(=O)N(C)C)cc1Cl,"inconclusive: 0.891 µM [inhibitor, full curve, poor fit]"
11,CCOc1ccc(C(=O)N[C@H](C(=O)Nc2ccc(S(=O)(=O)Nc3nccs3)cc2)C(C)C)cc1,"inconclusive: 0.447 µM [activator, single point]"
12,CCc1ccccc1N(C)S(=O)(=O)c1ccc2[nH]cc(C(=O)N3CCc4ccccc43)c(=O)c2c1,"inconclusive: 32.6 µM [inhibitor, single point]"
13,O=C(NC1CC(=O)N(c2ccc3c(c2)OCCO3)C1)N1CCCCC1 (stereo not given),"inconclusive: 22.4 µM [activator, partial curve, poor fit]"
14,COc1ccc(N2CCN(S(=O)(=O)Cc3ccccc3)CC2)cc1,"inconclusive: 0.517 µM [inhibitor, full curve, poor fit]"
15,COC(=O)C1CCN(C2CN(Cc3ccc(C)cc3)S(=O)(=O)C2)CC1 (stereo not given),"inconclusive: 4.99 µM [inhibitor, partial curve, poor fit]"
16,CCN(CC)CCNC(=O)c1sc2ncn(CC(=O)Nc3ccc(C)c(Cl)c3)c(=O)c2c1C,"inconclusive: 35.5 µM [inhibitor, single point]"
17,Cn1c(OCc2cccnc2)nc2c1c(=O)n(Cc1ccc(Br)cc1)c(=O)n2C,inactive
18,O=C(CN1N=C(c2ccccc2)CCC1=O)NCc1ccccc1,"inconclusive: 11.2 µM [activator, partial curve, poor fit]"
19,O=C(NCc1ccc2c(c1)CCN2C(=O)c1ccc(F)cc1)c1ccco1,"inconclusive: 35.5 µM [inhibitor, single point]"
20,O=[N+]([O-])c1cc(/C=N/OCc2c(Cl)cccc2Cl)ccc1N1CCOCC1,"inconclusive: 23.1 µM [inhibitor, single point]"
21,CN(Cc1ccccc1F)c1cc2c(c3c1ccn3C)C1CCC2O1 (stereo not given),"inconclusive: 0.315 µM [activator, full curve, poor fit]"
22,Cc1ccc(C(=O)O/N=C(\N)c2ccccn2)c(C)c1,active: 0.794 µM

row,Compound,Potency
1,O=C(Nc1ccc2oc(-c3ccc4ccccc4c3)nc2c1)c1ccc2c(c1)OCCO2,"inconclusive: 29.1 µM [inhibitor, single point]"
2,Cc1nn(CC(=O)Nc2cc(F)ccc2F)c(=O)c2cccn12,inactive
3,C=CCNC(=O)N1CCc2nc(-c3ccccc3)c3c(c2C1)CO[C@@H](C)C3,inconclusive: 0.0008 µM [inhibitor]
4,CCc1nn(CCCC(=O)NCc2ccco2)c(=O)c2cc3occc3n12,"inconclusive: 2.82 µM [activator, partial curve, poor fit]"
5,O=C(NC1CCCCC1)C(c1cccs1)N(C(=O)C(F)(F)F)c1ccccc1 (stereo not given),"inconclusive: 10.3 µM [inhibitor, partial curve]"
6,O=C(Nc1ccc2nc3n(c(=O)c2c1)CCCCC3)c1ccccn1,"inconclusive: 29.1 µM [inhibitor, single point]"
7,CC1(C)CC(=O)C2=C(C1)N(c1cccc(O)c1)C1=C(C2)C(=O)CC(C)(C)C1,"inconclusive: 7.08 µM [activator, full curve, poor fit]"
8,Cc1oc(-c2cccc(Cl)c2)nc1CN1CCCC(C(=O)N2CCN(c3ccc(F)cc3)CC2)C1 (stereo not given),inactive
9,Cc1cc(C(=O)OCC(=O)Nc2ncc(C(F)(F)F)cc2Cl)c(C)o1,"inconclusive: 0.794 µM [activator, full curve, poor fit]"
10,COC(=O)c1ccccc1N=Nc1c(C)noc1C,"inconclusive: 22.4 µM [inhibitor, partial curve, poor fit]"
11,COc1cc(NC2c3ccccc3C(=O)N2Cc2ccc3c(c2)OCO3)cc(OC)c1 (stereo not given),inactive
12,Cc1ccc2nc(-c3ccc4c(c3)NC(=O)CO4)cn2c1,"inconclusive: 35.5 µM [inhibitor, single point]"
13,COc1ccccc1/C=C/C(=O)Nc1ccc2c(c1)OCCO2,"inconclusive: 10.3 µM [inhibitor, partial curve, poor fit]"
14,Cc1nc(NC(=O)CSc2nnc3ccccn23)c(Cl)cc1Cl,inactive
15,CCC(C)c1ccc(NC(=O)C2CC3CCC2C3)cc1 (stereo not given),"inconclusive: 7.94 µM [inhibitor, partial curve, poor fit]"
16,CC(C)c1ccc(N(C(=O)c2snc(C(N)=O)c2N)C(C(=O)NCC2CCCO2)c2ccc(N(C)C)cc2)cc1 (stereo not given),"inconclusive: 0.1 µM [inhibitor, full curve, poor fit]"
17,CCOc1ccc(-n2c(CC)nc3c(cnn3-c3ccc(Cl)cc3)c2=O)cc1,"inconclusive: 14.1 µM [activator, single point]"
18,COc1ccc(C(=O)N[C@H](C(=O)OCC(=O)NC(=O)c2cccn2C)C(C)C)cc1,"inconclusive: 1.26 µM [inhibitor, single point]"
19,CCCCCCCC(=O)NC(Nc1ccc(S(N)(=O)=O)cc1)C(Cl)(Cl)Cl (stereo not given),"inconclusive: 20.6 µM [inhibitor, single point]"
20,CCCCN(CC)S(=O)(=O)c1ccc(C(=O)Nc2nnc(CSC)o2)cc1,"inconclusive: 11.2 µM [inhibitor, partial curve, poor fit]"
21,CSc1ccccc1OCc1cc(C(=O)NCC(C)(C)N2CCOCC2)no1,"inconclusive: 10 µM [activator, partial curve]"
